Source: paper PMC6101293
No constants are given. Whether binding was seen depends on the method and setting. In cells and extracts the contact can be indirect. Here binding means that the protein was enriched with, or labelled near, the bait; the list need not be complete.

Chains of the proteins cited; added tags and fusions are not shown.
UniProt P21359: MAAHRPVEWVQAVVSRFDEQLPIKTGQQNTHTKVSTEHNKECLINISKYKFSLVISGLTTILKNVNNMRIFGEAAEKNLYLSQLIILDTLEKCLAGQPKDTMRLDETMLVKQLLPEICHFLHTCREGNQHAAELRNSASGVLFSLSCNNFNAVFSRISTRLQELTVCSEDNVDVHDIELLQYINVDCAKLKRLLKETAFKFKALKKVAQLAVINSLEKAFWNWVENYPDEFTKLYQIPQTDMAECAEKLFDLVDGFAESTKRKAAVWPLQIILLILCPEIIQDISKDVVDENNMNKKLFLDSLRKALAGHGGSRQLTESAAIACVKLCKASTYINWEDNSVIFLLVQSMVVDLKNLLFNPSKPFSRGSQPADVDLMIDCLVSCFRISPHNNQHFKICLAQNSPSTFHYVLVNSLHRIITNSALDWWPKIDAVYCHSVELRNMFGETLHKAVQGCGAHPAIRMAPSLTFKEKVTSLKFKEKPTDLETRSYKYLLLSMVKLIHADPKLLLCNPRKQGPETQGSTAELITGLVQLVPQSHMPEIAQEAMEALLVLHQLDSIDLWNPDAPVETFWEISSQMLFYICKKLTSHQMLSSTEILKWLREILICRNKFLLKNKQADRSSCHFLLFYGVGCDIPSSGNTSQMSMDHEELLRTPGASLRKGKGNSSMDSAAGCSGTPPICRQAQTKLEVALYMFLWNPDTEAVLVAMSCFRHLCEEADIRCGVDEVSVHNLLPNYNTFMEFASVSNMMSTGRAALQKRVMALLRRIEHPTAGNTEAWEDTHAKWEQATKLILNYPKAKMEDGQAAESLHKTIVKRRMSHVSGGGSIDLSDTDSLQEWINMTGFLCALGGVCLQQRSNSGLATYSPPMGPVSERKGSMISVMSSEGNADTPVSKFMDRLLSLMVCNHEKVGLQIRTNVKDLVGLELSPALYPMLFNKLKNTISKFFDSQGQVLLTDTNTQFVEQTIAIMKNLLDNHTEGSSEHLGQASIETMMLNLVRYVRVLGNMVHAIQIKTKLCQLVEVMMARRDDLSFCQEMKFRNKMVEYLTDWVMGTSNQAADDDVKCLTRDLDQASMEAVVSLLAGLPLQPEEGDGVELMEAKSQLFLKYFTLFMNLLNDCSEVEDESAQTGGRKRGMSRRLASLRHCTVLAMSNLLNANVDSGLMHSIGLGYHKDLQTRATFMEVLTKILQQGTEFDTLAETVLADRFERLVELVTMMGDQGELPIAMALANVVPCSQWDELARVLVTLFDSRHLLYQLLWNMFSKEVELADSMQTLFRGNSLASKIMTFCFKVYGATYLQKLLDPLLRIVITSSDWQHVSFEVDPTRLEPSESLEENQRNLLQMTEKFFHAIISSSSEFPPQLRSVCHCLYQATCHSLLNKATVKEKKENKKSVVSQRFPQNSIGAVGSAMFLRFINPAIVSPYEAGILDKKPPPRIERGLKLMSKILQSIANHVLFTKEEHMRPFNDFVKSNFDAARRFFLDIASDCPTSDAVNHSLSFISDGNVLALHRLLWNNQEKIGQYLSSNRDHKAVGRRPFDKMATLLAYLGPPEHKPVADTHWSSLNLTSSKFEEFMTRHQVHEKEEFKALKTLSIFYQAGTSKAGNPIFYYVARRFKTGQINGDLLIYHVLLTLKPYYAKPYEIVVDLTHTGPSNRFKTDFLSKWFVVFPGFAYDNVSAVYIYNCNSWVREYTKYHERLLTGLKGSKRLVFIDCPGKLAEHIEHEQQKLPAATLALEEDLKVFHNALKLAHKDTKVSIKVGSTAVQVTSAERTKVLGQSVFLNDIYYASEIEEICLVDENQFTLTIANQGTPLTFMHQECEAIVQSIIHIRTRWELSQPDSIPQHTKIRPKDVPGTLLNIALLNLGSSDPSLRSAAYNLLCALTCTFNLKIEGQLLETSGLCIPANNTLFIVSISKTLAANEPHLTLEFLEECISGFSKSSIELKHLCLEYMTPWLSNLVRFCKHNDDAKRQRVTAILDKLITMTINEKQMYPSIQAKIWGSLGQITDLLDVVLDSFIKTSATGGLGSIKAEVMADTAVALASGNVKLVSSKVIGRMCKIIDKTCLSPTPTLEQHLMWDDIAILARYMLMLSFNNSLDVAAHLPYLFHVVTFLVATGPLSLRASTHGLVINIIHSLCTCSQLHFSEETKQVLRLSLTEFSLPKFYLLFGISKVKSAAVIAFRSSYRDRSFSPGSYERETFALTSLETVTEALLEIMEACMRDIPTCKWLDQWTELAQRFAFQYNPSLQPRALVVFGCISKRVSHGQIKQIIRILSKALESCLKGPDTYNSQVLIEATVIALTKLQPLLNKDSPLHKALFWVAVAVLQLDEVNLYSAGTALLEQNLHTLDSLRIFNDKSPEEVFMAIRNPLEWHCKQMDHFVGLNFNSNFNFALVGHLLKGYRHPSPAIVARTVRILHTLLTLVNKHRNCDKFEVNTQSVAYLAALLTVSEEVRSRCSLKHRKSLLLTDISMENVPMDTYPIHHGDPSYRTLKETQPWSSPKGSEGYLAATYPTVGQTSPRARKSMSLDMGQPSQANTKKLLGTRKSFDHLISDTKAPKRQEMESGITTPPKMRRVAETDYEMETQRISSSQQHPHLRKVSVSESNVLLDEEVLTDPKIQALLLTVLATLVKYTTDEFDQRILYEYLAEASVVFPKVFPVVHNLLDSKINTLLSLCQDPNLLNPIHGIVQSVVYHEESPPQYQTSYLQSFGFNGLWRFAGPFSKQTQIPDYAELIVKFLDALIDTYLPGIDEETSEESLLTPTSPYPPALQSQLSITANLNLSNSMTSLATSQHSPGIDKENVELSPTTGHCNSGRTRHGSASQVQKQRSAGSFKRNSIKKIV
UniProt Q7Z698: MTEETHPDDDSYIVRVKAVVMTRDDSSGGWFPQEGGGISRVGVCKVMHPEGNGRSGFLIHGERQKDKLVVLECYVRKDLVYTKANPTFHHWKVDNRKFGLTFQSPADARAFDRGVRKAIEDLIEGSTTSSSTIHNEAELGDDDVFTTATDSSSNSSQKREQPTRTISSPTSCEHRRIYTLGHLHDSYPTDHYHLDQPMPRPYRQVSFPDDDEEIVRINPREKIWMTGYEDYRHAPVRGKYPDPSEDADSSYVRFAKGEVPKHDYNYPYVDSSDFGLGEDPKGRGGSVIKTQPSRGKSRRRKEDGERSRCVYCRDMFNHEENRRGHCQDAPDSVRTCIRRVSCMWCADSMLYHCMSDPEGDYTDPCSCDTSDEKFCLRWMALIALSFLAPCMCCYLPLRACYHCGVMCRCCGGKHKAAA

Molecular target: Neurofibromin 1 (NF1), endogenous (human (endogenous in A375 and 74T)) (UniProt P21359)
Assay: affinity purification with mass spectrometry; endogenous NF1 immunoprecipitated with anti-NF1 and protein A/G beads from 3 mg lysate of A375 or 74T cells (1% NP-40, 50 mM Tris-HCl pH 7.5, 150 mM NaCl, 0.5% deoxycholic acid, 0.1% SDS), overnight at 4°C, five washes; SDS-PAGE, digestion, LC-MS/MS; control normal rabbit IgG

## SPRED2, endogenous (from UniProt Q7Z698 1-418)
  binding: binds

B1: CAPN1 small (regulatory, 28 kDa) subunit, endogenous (protein, UniProt P04632 1-268)
chain: MFLVNSFLKGGGGGGGGGGGLGGGLGNVLGGLISGAGGGGGGGGGGGGGGGGGGGGTAMRILGGVISAISEAAAQYNPEPPPPRTHYSNIEANESEEVRQFRRLFAQLAGDDMEVSATELMNILNKVVTRHPDLKTDGFGIDTCRSMVAVMDSDTTGKLGFEEFKYLWNNIKRWQAIYKQFDTDRSGTICSSELPGAFEAAGFHLNEHLYNMIIRRYSDESGNMDFDNFISCLVRLDAMFRAFKSLDKDGTGQIQVNIQEWLQLTMYS
  binding: binds
